# Test results reported in paper doi:10.1101/2025.11.28.691146.
# No constants are given. Whether binding was seen depends on the method and setting. Sequences can lack the tags named with a protein.
# Biological target: McrA (mitomycin C resistance protein) from Streptomyces lavendulae (Streptomyces lavendulae) (UniProt P43485)
# Test: SEC
binder,measurement,value
"McrA (mitomycin C resistance protein) from Streptomyces lavendulae (enzyme, UniProt P43485 1-448, FAD covalently bound to His64) MSTQWGWALEPDQPGYDDARLGLNRAAESRPAYVVEAADEQEVAAAVRLAAEQKRPVGVMATGHGPSVSADDAVLVNTRRMEGVSVDAARATAWIEAGARWRKVLEHTAPHGLAPLNGSSPNVGAVGYLVGGGAGLLGRRFGYAADHVRRLRLVTADGRLRDVTAGTDPDLFWAVRGGKDNFGLVVGMEVDLFPVTRLYGGGLYFAGEATAEVLHAYAEWVRHVPEEMASSVLLVHNPDLPDVPEPLRGRFITHLRIAYSGEPADGEHLVRPLRELGPILLDTVRDMPYAEVGTIHHEPTSMPYVAYDRNVLLSDLTDDAVDIIVALAGPDAGAPFVTELRHFGGAYARPPKVPNCVGGRDAAFSLFTGAVPEAEGLRRRDDLLDRLRPWSTGGTNLNFAGVEDISPASVEAAYTPADFARLRAVKAQYDPDNMFRVNFNIPPAESWT",binding,no binding
